Reference: US12320798B2, “Diagnostic methods, therapeutic agents and uses thereof” (Metabolon, Inc., priority 2015, dated 2025)

Experiment: Plasma 2-methylsuccinate in type 2 diabetic vs non-diabetic Japanese subjects
Type: in vivo, human
Conditions: age and sex-matched Japanese subjects

CC(CC(=O)O)C(=O)O (stereo not shown) [2-methylsuccinate]
plasma level, type 2 diabetic compared to non-diabetic subjects: 4.21 fold
